In PMC8282777:
No constants are given. Whether binding was seen depends on the method and setting. Binding seen in cells or lysates may run through a third protein. Some entries that bind do so weakly or less than the wild type.

Amino acid sequences for entries named in this document (tags omitted).
UniProt P25490: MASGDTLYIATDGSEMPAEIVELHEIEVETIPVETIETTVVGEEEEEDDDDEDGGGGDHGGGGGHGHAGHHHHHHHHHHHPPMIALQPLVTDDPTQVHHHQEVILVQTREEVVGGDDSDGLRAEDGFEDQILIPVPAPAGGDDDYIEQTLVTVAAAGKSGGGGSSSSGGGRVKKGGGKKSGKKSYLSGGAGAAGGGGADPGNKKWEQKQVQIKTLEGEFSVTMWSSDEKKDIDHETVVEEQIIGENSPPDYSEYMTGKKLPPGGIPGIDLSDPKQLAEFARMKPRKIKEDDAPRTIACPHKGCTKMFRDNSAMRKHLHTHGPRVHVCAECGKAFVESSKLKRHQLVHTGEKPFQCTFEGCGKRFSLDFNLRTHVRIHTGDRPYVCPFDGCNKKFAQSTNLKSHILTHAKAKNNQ
UniProt Q9HAU4: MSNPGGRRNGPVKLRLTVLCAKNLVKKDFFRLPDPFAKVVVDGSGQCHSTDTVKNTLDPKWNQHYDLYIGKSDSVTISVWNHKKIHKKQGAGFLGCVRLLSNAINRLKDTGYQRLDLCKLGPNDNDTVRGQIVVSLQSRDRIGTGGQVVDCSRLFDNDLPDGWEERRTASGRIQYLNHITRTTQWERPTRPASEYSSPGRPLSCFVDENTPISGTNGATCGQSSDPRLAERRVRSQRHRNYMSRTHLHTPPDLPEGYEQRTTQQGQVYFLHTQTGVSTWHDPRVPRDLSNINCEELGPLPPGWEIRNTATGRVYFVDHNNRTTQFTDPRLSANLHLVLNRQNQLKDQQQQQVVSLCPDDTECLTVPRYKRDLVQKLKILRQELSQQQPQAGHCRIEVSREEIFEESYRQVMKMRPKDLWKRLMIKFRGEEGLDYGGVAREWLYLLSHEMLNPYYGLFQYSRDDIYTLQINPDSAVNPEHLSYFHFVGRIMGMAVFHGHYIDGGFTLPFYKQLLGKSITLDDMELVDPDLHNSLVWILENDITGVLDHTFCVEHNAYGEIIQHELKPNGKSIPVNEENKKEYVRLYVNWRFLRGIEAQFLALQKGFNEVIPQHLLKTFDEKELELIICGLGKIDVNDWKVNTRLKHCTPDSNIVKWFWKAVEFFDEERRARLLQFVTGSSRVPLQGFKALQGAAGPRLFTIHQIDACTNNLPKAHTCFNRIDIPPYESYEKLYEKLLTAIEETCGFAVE

Biological target: Yin Yang 1 (YY1) (human (endogenous in ARPE-19)) (UniProt P25490)
Test: co-IP; ARPE-19 cells (1 x 10^7) lysed, incubated with anti-YY1 (ab227269) or IgG overnight, Protein A/G-agarose beads 4 h; YY1 and Smurf2 detected by western blotting

binding: binds
Substance: Smad ubiquitin regulatory factor 2 (Smurf2) (from UniProt Q9HAU4 1-748)
